This is an account of results in PubChem BioAssay AID463205 (Broad Institute, 2010).

Each structure is given as a SMILES string. The campaign covered roughly 2,400 compounds. About 20 (0.8%) were called active.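 Rule for the calls: active = AC50 no more than ten times the highest tested concentration, or full inhibition at every dose giving a flat fit (cut at about 30 µM in these data); inconclusive = flat fit with activity between 30% and 70%, or poor-quality invalid fit; inactive = AC50 more than ten times the top tested dose.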 The list shows a part of the results.

A word on the AC50: it is the concentration giving half of the maximal activity seen.

The nature of this assay: inhibitors of ADP-Glo detection reagents, dose response, artefact control for GSK-3a inhibitor project, biochemical, luminescence, cell-free, homogeneous (AID 463205).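 Note: kinase-free counter-screen against the ADP-Glo detection reagents only; potency is for inhibitors that reduce the luminescence signal.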 The note with it: 5 uM ADP.
As to `COc1ccccc1C(=O)Nc1ccncc1`, the AC50 was inactive: > 30 µM.

In the case of `CCOC(=O)N1CCC(N2CCN(S(=O)(=O)c3ccc([N+](=O)[O-])cc3)CC2)CC1`, the AC50 was inactive: > 30 µM.

Take `CCOc1cc(/C=C2\SC(N)=NC2=O)ccc1O`: the AC50 is inactive: > 30 µM. For the compound `C/C(=N\NC(=O)c1nnn(-c2nonc2N)c1CN(C)c1ccccc1)c1ccc(O)cc1`, the AC50 is inactive: > 30 µM.

As to `CCNc1cc(N2CCCC2)ccc1[N+](=O)[O-]`, the AC50 is inactive: > 30 µM. In the case of `CC1(C)Oc2ccc3ccc(=O)oc3c2-c2cnoc21` it was inactive: > 30 µM; in that of `COc1ccccc1NC(=O)Nc1ccccc1Br`, inactive: > 30 µM. In the case of `O=c1[nH]c(CN2CCN(CCO)CC2)nc2ccccc12` it was inactive: > 30 µM; in that of `C/C(=N\NC(=O)c1nnn(-c2nonc2N)c1-c1cccs1)c1ccncc1`, inactive: > 30 µM. `Cc1c(C(=O)N/N=C/c2cccnc2)nnn1-c1nonc1N`: the AC50 was inactive: > 30 µM. As to `O=C(c1ccc(Cn2cnnn2)cc1)N1CCCC(Nc2ccc(F)c(F)c2)C1` (configuration not stated), the AC50 was inactive: > 30 µM.

Consider `NC(=O)c1ccc(N=C2C(=O)Nc3ccc([N+](=O)[O-])cc32)cc1`, for which the AC50 was inactive: > 30 µM.

With `COc1cccc(-c2c(C(=O)N/N=C(\C)c3cccs3)nnn2-c2nonc2N)c1`, the AC50 is inactive: > 30 µM. In the case of `O=C(/C(=N/N=C/c1ccc(O)c(O)c1)c1ccccc1)c1ccccc1` it was inactive: > 30 µM; in that of `COc1ccc(-c2cc(C(F)(F)F)nc(SCC(=O)NCc3cccs3)n2)cc1OC`, inactive: > 30 µM.

In the case of `COc1ccc(-c2noc(CSc3nc(N)cc(=O)[nH]3)n2)cc1`, the AC50 is inactive: > 30 µM. In the case of `COc1ccc(-c2cc(C(=O)N3CCN(c4ccccc4)CC3)no2)cc1OC` it was inactive: > 30 µM; in that of `Clc1nccnc1N/N=C/c1ccc(Br)cc1`, inactive: > 30 µM; in that of `CCOc1cc(/C=C2\SC(N3CCCCC3)=NC2=O)ccc1O`, inactive: > 30 µM.

Consider `CCOC(=O)c1nc(NCc2ccccc2F)c2ccccc2n1`, for which the AC50 is inactive: > 30 µM. For `Cn1c(SCc2cnc(-c3ccccc3)s2)nnc1C1COc2ccccc2O1` (configuration not stated), the AC50 is inactive: > 30 µM.

For `O=C(N/N=C/c1ccc(O)c(O)c1)C1CC1`, the AC50 is inactive: > 30 µM. For the compound `COc1ccccc1Nc1ccc(S(=O)(=O)N2CCCCC2)cc1[N+](=O)[O-]`, the AC50 was inactive: > 30 µM. With `CCc1c(C)c(C#N)c2nc3ccccc3n2c1NC`, the AC50 is inactive: > 30 µM. `CCCC(=O)Nc1nc2ccc(OCC)cc2s1`: the AC50 is inactive: > 30 µM. In the case of `Cc1nc(C)c(C(=O)Nc2ncc([N+](=O)[O-])s2)o1` it was inactive: > 30 µM; in that of `N#C/C(=C/Nc1ccccc1)c1ccsc1`, inactive: > 30 µM.

On to `N#Cc1c(-c2ccc(F)cc2)c2c([nH]c1=O)-c1ccccc1OC2`, for which the AC50 is inactive: > 30 µM. In the case of `CCOc1ccc(S(=O)(=O)Nc2cccc(C(=O)NCCCn3ccnc3)c2)cc1` it was inactive: > 30 µM; in that of `O=C1c2cnc3nc(SCc4ccc(Cl)cc4)nn3c2CC2c3ccccc3CCN12` (configuration not stated), inactive: > 30 µM; in that of `O=C1N=C(C=c2ccc(=Cc3[nH]c(=O)[nH]c3O)cc2)C(=O)N1`, inactive: > 30 µM. In the case of `O=C(CCCN1C(=O)C2CCCCN2C1=O)N1CCN(c2ccc([N+](=O)[O-])cc2)CC1` (configuration not stated) it was inactive: > 30 µM. In the case of `CCOC(=O)c1[nH]c2c(c1-c1ccccc1)C(=O)CC(c1ccccc1)C2` (configuration not stated) it was inactive: > 30 µM; in that of `c1cncc(-c2nc3ccccc3[nH]2)c1`, inactive: > 30 µM; in that of `FC(F)(F)COc1ccc(-c2nnc(SCc3c(Cl)cccc3Cl)o2)cn1`, inactive: > 30 µM. `COc1cc(C2C(C#N)=C(N)Oc3n[nH]c(-c4cccnc4)c32)ccc1OCC(N)=O` (configuration not stated): the AC50 was inactive: > 30 µM. On to `O=C(NCCO)c1ccccc1O`, for which the AC50 was inactive: > 30 µM.

With `CCOc1ccc(-c2c(C(=O)N/N=C(\C)c3cccnc3)nnn2-c2nonc2N)cc1`, the AC50 is inactive: > 30 µM. In the case of `CN(C)Cc1c(C(=O)N/N=C/C2CC=CCC2)nnn1-c1nonc1N` (configuration not stated) it was inactive: > 30 µM; in that of `COC(=O)Nc1nnc(COc2ccccc2)s1`, inactive: > 30 µM. Regarding `Nc1nonc1-n1nnc(C(=O)N/N=C/c2cccs2)c1CSc1ccccc1`, the AC50 is inactive: > 30 µM. In the case of `COc1cc(/C=N/c2oc(C)c(C)c2C#N)cc(Br)c1O` it was inactive: > 30 µM; in that of `COc1ccccc1OC(C)C(=O)N1CCC(Cc2ccccc2)CC1` (configuration not stated), inactive: > 30 µM. In the case of `CCOC(=O)Cc1csc(NC(=O)C2CCCN(S(=O)(=O)c3cnc[nH]3)C2)n1` (configuration not stated) it was inactive: > 30 µM; in that of `COC(=O)[C@H]1[C@H](CCc2ccccc2)NC(=O)N(Cc2ccccc2)[C@@H]1C`, inactive: > 30 µM; in that of `CCCC(=O)Nc1nn(CC)c2nc3ccc(C)cc3cc12`, inactive: > 30 µM. In the case of `O=C(O)CN1C(=O)C2C3CC(C2C1=O)C1C(c2ccccc2)c2sc(=O)[nH]c2SC31` (configuration not stated) it was inactive: > 30 µM; in that of `Cc1cc(N2CCN(c3ccccc3)CC2)n2nnnc2n1`, inactive: > 30 µM.

Take `Cc1ccccc1-n1c2nc(=O)n(C)c(=O)c-2cc2ccccc21`: the AC50 was inactive: > 30 µM. Consider `CCn1c2ccccc2c2nc3ccccc3nc21`, for which the AC50 is inactive: > 30 µM. In the case of `CC(=O)Nc1cccc(-c2csc(NCc3ccccc3)n2)c1` it was inactive: > 30 µM; in that of `Cc1ccc(N=C2NC(=O)/C(=C\c3ccco3)S2)cc1`, inactive: > 30 µM. In the case of `Cc1ccc(CSc2ccc3nnc(-c4cccnc4)n3n2)cc1` it was inactive: > 30 µM; in that of `COc1cc(/C=N/NC(=O)c2cccc(C(=O)N/N=C/c3ccc(O)c(OC)c3)n2)ccc1O`, inactive: > 30 µM. In the case of `COc1ccc(-c2noc(CSc3nc(N)c(-c4ccccc4)c(=O)[nH]3)n2)cc1` it was inactive: > 30 µM. `COc1ccc(/C=N/NC(=O)c2nnn(-c3nonc3N)c2-c2cccs2)cc1OC`: the AC50 was inactive: > 30 µM.

For the compound `Cc1ccc(-c2nc3ncccn3c2Nc2ccc3c(c2)OCCO3)cc1`, the AC50 is inactive: > 30 µM.

Turning to `O=C1CCCC2=C1C(c1cccc(O)c1)c1c(ccc3ncccc13)N2` (configuration not stated), the AC50 was inactive: > 30 µM.

Regarding `O=C(Nc1ccccc1-c1nnc(SCc2ccc(Cl)cc2)o1)c1ccccc1`, the AC50 is inactive: > 30 µM. In the case of `NC(=O)c1cccc(S(=O)(=O)N2CC(c3ccccc3)CC2=O)c1` (configuration not stated) it was inactive: > 30 µM; in that of `Cc1nc2c(ccc3c2ccc2nc(C)sc23)s1`, inactive: > 30 µM; in that of `N#C/C(=N\Nc1ccccc1)C(N)=S`, inactive: > 30 µM. In the case of `COc1ccc(N2CCOCC2)c(NC(=O)c2ccc(Br)o2)c1` it was inactive: > 30 µM. In the case of `CCOC(=O)c1cnc2c(Cl)c(Cl)ccc2c1N1CCN(C)CC1` it was inactive: > 30 µM; in that of `COc1cc(/C=N/NC(=O)CSCc2ccc([N+](=O)[O-])cc2)cc(OC)c1OC`, inactive: > 30 µM. With `O=C1NC(=Nc2ccccc2Cl)S/C1=C\c1cc([N+](=O)[O-])ccc1O`, the AC50 was inactive: > 30 µM. For `CC1(C)Cc2c(sc3nn[nH]c(=O)c23)CO1`, the AC50 was inactive: > 30 µM. In the case of `O=C(c1ccc(Cl)cc1)c1cnc(Nc2ccccc2)s1` it was inactive: > 30 µM. In the case of `O=C1NC(=Nc2cccc(O)c2)S/C1=C\c1cccc([N+](=O)[O-])c1` it was inactive: > 30 µM.

In the case of `COCCCNc1c2c3c(cccc3[nH]c1=O)C(=O)c1ccccc1-2`, the AC50 was inactive: > 30 µM. In the case of `COc1cccc(C2C(C(=O)OC(C)C)=C(C)Nc3ncnn32)c1` (configuration not stated) it was inactive: > 30 µM; in that of `COc1ccc(-c2noc(CSc3nc(-c4ccccc4)cc(=O)[nH]3)n2)cc1`, inactive: > 30 µM. As for `CC(C)(C)OC(=O)N1CCC(NC(=O)c2[nH]cnc2C(=O)Nc2ccon2)CC1`, the AC50 was inactive: > 30 µM.

In the case of `O=C(Nc1ccccc1-c1nnc(SCc2ccc(Cl)cc2Cl)o1)c1ccccc1`, the AC50 was inactive: > 30 µM. In the case of `CCOC(=O)C(CC)Sc1ccc2nnc(-c3cccnc3)n2n1` (configuration not stated) it was inactive: > 30 µM; in that of `COC(=O)C1=C(C)Nc2[nH]c(=S)[nH]c(=O)c2C1c1ccc(O)cc1` (configuration not stated), inactive: > 30 µM; in that of `Cc1c(C(=O)N/N=C/c2ccc(O)c(Br)c2)sc(N)c1C#N`, inactive: > 30 µM.

`CCN1CCN(c2nc(N)c([N+](=O)[O-])c(Nc3ccc(C)cc3)n2)CC1`: the AC50 was inactive: > 30 µM. On to `CC1CCCC(C)N1C(=O)COC(=O)Cc1c[nH]c2ccccc12` (configuration not stated), for which the AC50 is inactive: > 30 µM. In the case of `O=c1cc(-c2ccco2)oc2c1ccc1ccccc12` it was inactive: > 30 µM.

As to `Cc1ccc(Sc2ccc(NC(=O)CCl)cc2)c(C)c1`, the AC50 is inactive: > 30 µM. In the case of `CCN=C(NC#N)SCc1c(F)cccc1Cl` it was inactive: > 30 µM; in that of `COc1ccccc1/C=C1\S/C(=N/NC(=O)c2cccc(Br)c2)NC1=O`, inactive: > 30 µM; in that of `O=C(O)Cn1cc(/C=N/NC(=O)c2cc3cc(Br)ccc3o2)c2ccccc21`, inactive: > 30 µM. For the compound `COc1ccc(C(=O)Nc2nncs2)cc1S(=O)(=O)N1CC(c2ccccc2)CC1=O` (configuration not stated), the AC50 is inactive: > 30 µM. Turning to `COc1ccc(-n2c(C)c([N+](=O)[O-])c3ccc(O)c(CN4CCCCC4)c32)cc1`, the AC50 was inactive: > 30 µM. In the case of `O=C(CN1CCCCCC1)Nc1ccccc1Oc1ccccc1` it was inactive: > 30 µM; in that of `NC(=O)c1sc2nc3c(c(-c4cccnc4)c2c1N)CCC3`, inactive: > 30 µM.

Consider `CN(C)c1ncnc2c1ncn2C1OC(CO)C(O)C1O` (configuration not stated), for which the AC50 was inactive: > 30 µM.

With `COc1cc(C2CC(=O)Nc3n[nH]c(-c4ccccc4)c32)cc(OC)c1OC` (configuration not stated), the AC50 was inactive: > 30 µM. In the case of `O=C(NCC1CCN(Cc2ccccc2Cl)CC1)Nc1ccccc1F` it was inactive: > 30 µM. As to `COc1ccc2[nH]c(C(=O)O)c(NS(=O)(=O)c3ccc(OC)c(OC)c3)c2c1`, the AC50 is inactive: > 30 µM.
